Measurements reported in patent US20140162950A1.
No constants are given. Whether binding was seen depends on the method and setting. In cells and extracts the contact can be indirect. Some binding calls cover weakened binding; strength is not graded here.

By UniProt entry, the sequences of proteins in these tests, tags left out. Where a name states a change or a piece, a line headed by the entry shows the natural chain unless it says otherwise.
UniProt P05556: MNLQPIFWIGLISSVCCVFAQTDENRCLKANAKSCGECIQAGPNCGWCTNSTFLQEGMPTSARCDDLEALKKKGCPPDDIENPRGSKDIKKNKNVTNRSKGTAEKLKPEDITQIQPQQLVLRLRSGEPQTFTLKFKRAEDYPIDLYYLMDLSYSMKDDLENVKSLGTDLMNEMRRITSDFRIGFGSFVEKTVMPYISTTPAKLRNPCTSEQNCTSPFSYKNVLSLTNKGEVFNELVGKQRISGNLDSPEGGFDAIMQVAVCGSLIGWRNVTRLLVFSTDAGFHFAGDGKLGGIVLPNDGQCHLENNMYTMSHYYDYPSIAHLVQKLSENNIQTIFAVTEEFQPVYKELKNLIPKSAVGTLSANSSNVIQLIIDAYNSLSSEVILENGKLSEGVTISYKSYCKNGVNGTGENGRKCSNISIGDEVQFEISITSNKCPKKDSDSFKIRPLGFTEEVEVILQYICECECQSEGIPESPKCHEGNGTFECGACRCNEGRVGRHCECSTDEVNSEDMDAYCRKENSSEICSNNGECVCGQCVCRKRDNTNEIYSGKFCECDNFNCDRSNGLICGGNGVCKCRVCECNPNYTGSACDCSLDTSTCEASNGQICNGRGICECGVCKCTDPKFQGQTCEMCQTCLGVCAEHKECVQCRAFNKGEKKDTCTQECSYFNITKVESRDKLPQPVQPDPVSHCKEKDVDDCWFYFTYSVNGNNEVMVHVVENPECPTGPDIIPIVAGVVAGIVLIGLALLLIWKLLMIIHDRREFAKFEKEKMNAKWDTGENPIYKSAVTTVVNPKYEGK
UniProt P29279: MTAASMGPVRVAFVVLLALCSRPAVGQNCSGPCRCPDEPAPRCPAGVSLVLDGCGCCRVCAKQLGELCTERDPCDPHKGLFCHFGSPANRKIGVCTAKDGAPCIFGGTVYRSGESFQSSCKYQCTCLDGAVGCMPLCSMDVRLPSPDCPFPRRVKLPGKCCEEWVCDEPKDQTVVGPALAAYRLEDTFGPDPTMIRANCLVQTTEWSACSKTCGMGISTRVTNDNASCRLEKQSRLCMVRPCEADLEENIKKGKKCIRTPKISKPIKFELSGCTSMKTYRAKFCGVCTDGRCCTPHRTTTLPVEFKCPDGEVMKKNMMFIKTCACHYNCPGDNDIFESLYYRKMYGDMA

Columns and labels:
[1] = target: T1, integrin α3β1 on gastric cancer cells (MKN45, MKN45/CTGF, AGS) (human) (UniProt P26006+P05556); test: co-immunoprecipitation
[2] = target: T1, integrin α3β1 on gastric cancer cells (MKN45, MKN45/CTGF, AGS) (human); test: conclusion from co-immunoprecipitation and adhesion blocking assays
[3] = target: T2, integrin α3 subunit (endogenous, from MKN45/CTGF total cell lysate) (human) (UniProt P26006); test: co-immunoprecipitation: IP with integrin α3 antibody, detection with CTGF antibody
T2 sequence (looked up): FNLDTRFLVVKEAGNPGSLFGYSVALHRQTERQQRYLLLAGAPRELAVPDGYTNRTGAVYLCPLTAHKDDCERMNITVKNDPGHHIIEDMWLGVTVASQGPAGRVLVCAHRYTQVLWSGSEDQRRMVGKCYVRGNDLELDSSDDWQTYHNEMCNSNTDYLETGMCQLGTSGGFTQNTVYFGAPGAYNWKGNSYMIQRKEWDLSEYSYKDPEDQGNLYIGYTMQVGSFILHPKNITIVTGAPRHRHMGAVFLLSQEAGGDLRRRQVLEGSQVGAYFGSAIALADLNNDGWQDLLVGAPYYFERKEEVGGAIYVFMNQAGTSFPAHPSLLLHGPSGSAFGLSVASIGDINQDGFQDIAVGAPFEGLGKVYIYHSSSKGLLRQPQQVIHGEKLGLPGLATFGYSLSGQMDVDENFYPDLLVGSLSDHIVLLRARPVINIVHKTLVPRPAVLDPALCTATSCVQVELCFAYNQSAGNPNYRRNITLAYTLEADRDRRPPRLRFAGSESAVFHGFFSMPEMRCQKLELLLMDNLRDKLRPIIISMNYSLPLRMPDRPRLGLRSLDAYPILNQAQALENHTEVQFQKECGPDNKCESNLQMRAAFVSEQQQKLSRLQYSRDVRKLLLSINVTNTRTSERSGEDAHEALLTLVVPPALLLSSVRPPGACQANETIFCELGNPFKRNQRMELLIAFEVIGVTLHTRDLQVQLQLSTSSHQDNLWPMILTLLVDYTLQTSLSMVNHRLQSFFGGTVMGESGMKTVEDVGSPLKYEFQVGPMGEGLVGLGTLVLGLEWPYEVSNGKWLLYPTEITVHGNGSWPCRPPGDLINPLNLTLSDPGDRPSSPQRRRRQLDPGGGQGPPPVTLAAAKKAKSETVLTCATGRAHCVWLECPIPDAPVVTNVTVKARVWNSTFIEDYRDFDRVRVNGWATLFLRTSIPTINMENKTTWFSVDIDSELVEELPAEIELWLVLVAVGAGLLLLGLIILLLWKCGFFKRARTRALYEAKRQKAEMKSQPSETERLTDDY

[4] = target: T2, integrin α3 subunit (endogenous, from MKN45/CTGF total cell lysate) (human); test: co-immunoprecipitation from MKN45/CTGF total cell lysate with anti-integrin α3 monoclonal antibody, western blot with anti-CTGF polyclonal antibody

binding [1]: binds
binding [2]: binds
binding [3]: binds
binding [4]: binds
Substance: connective tissue growth factor (CTGF) native protein, over-expressed from full-length cDNA in MKN45/CTGF cells (from UniProt P29279 27-349) (ligand)
